For at least one compound, name, drawing or mass did not settle the structure.
target: human NAMPT (Homo sapiens (Human), UniProt P43490); assay: NMN fluorescence biochemical assay (human recombinant NAMPT enzyme assay)
Procedure: Compounds described herein were assayed for their ability to stimulate the synthesis of nicotinamide mononucleotide (NMN) by the enzyme NAMPT. The human recombinant enzyme assay measures the activation of the enzyme activity by compounds using recombinant enzyme and substrates in a buffered cell-free system. The assay conditions closely mimic cellular environments. Dose responses were measured using an assay to detect the formation of nicotinamide mono-nucleotide. All experiments were performed in the 384-well format. Generally, 0.5 μL of DMSO containing varying concentrations of the test compound was mixed with 10 μL of the enzyme reagent solution. Enzyme reactions were initiated with the addition of […] containing the substrates. The final assay conditions were as follows: 6 nM human NAMPT, 2.5 mM ATP, 20 μM PRPP and 150 μM nicotinamide in 50 mM HEPES, pH 7.2, 1 mM DTT, 1 mM CHAPS 50 mM NaCl, 100 mM MgCl2. Following an incubation of 60 min at ambient temperature, 10 μL of 20% acetophenone in DMSO was added, followed by 10 μL of 2 M KOH and 40 μL of formic acid. The plates were read for fluorescence (Excitation/Emission=355 nm/460 nm) using an EnVision plate reader after 40 mins of incubation at ambient temperature.

The chains behind the UniProt entries cited, without tags or fusion partners. Where a name states a change or a piece, a line headed by the entry shows the natural chain unless it says otherwise.
UniProt P43490: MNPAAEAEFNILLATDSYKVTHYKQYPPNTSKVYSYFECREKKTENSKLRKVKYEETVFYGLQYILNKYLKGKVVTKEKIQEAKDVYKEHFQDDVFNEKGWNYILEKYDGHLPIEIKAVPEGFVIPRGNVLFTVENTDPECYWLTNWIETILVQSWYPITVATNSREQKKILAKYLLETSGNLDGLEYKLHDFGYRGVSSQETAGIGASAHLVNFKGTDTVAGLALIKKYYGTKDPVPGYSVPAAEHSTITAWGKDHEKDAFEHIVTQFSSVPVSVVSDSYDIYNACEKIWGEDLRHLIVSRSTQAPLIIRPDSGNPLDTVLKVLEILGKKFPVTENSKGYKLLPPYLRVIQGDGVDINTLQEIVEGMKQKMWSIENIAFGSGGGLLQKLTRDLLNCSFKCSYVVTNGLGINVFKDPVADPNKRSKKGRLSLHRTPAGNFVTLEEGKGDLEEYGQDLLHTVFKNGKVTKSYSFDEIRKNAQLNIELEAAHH

AC1.4 Human	SMILES
2.55 µM	O=C(Nc1ccc(CN2C(=O)CC[C@@H]2c2cccnc2)cc1)OCc1ccc(Cl)cc1 [Compound 249, N-(4-{[(5R)-2-oxo-5-(pyridin-3-yl)pyrrolidin-1-yl]methyl}phenyl)carbamate]
11.54 µM	CN(C1CCOC1)S(=O)(=O)c1ccc(NC(=O)OCc2ccc(Cl)cc2)cc1 (stereo not drawn) [Compound 342, 4-chlorobenzyl (4-(N-methyl-N-(tetrahydrofuran-3-yl)sulfamoyl)phenyl)carbamate]
10.05 µM	CN(Cc1ccccc1)S(=O)(=O)c1ccc(NC(=O)OCc2ccc(Cl)cc2)cc1 [Compound 335, 4-chlorobenzyl (4-(N-benzyl-N-methylsulfamoyl)phenyl)carbamate]

Reference: patent US20240279215A1 (Cytokinetics, Incorporated, priority 2022, published 2024)
